Results deposited as PubChem BioAssay AID743456 (Peter MacCallum Cancer Centre, 2014).
In all, the deposit lists 878 reagents; shown is an unselected part. Of all reagents, 27 (3.1%) were called active. 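27 mimics are marked active, unlike an earlier stated count of 24; the viability threshold is described inconsistently.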 Unmarked entries are inactive. Further read-outs or replicates are left out here. Not stated in the record: the amount of reagent.

Screen: 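miRNA mimics altering how resistant colon cancer cells respond to vorinostat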 (primary screen)
System: human HCT116-VR colon cancer cells, a vorinostat-resistant HCT116 line
Reagents: miRNA mimic
Timing: about 3 days from transfection to readout; drug present for the last 24 h
Challenge: vorinostat at 2.5 µM final for 24 h
Measurement: 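Cell viability from CellTiter-Fluor signal and caspase activity from luminescence after 24 h vorinostat at 2.5 µM, given as robust z-scores and as ratios to mock-transfected wells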
Direction: viability robust z-score: higher = more viable cells; caspase robust z-score: higher = more caspase activity, more apoptosis
Active means: 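a mimic counts as active if it lands in a lowered-viability class or a caspase-activation class; wells with too few cells without drug are left out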

hsa-miR-383: viability robust z-score = 0.03; caspase robust z-score = -0.76; viability hit class = no change; caspase hit class = no change
hsa-miR-139-5p: viability robust z-score = 0.52; caspase robust z-score = -0.5; viability hit class = no change; caspase hit class = no change
hsa-miR-539: viability robust z-score = 1.3; caspase robust z-score = -0.27; viability hit class = no change; caspase hit class = no change
hsa-miR-1277: viability robust z-score = 0.88; caspase robust z-score = -0.88; viability hit class = no change; caspase hit class = no change
hsa-miR-23b: viability robust z-score = -0.31; caspase robust z-score = -1; viability hit class = no change; caspase hit class = no change
hsa-miR-554: viability robust z-score = 0.13; caspase robust z-score = 0.16; viability hit class = no change; caspase hit class = no change

As entered above:
Under “caspase robust z-score”, hsa-miR-23b shows -1
Result of hsa-miR-539 in “caspase robust z-score”: -0.27

The results go on:
hsa-miR-454: viability robust z-score = 1.68; caspase robust z-score = 0.5; viability hit class = no change; caspase hit class = no change
hsa-miR-1252: viability robust z-score = -0.56; caspase robust z-score = 1.07; viability hit class = no change; caspase hit class = no change
hsa-miR-675: viability robust z-score = 0.04; caspase robust z-score = -0.1; viability hit class = no change; caspase hit class = no change
hsa-miR-574-5p: viability robust z-score = 0.08; caspase robust z-score = 0.24; viability hit class = no change; caspase hit class = no change
hsa-miR-1290: viability robust z-score = 1.1; caspase robust z-score = -0.38; viability hit class = no change; caspase hit class = no change
hsa-miR-1537: viability robust z-score = 1.31; caspase robust z-score = -0.82; viability hit class = no change; caspase hit class = no change
hsa-miR-200c: viability robust z-score = -0.55; caspase robust z-score = -0.41; viability hit class = no change; caspase hit class = no change
hsa-miR-1914*: viability robust z-score = 0.94; caspase robust z-score = -0.6; viability hit class = no change; caspase hit class = no change
hsa-miR-518b: viability robust z-score = -0.4; caspase robust z-score = -0.4; viability hit class = no change; caspase hit class = no change
hsa-miR-619: viability robust z-score = 0.4; caspase robust z-score = 0.57; viability hit class = no change; caspase hit class = no change
hsa-miR-148a: viability robust z-score = 0.92; caspase robust z-score = 0.05; viability hit class = no change; caspase hit class = no change
